ChEMBL document CHEMBL1772991, “Synthesis and structure-activity relationship of tricyclic carboxylic acids as novel anti-histamines” (Bioorg Med Chem, 2011)

Experiments:
[1] = organism: Mus musculus; test: animal or person; format: functional; conditions: ddY, po
[2] = organism: Homo sapiens; test: Ratio of IC50 for human adrenergic alpha1 to IC50 for human histamine H1 receptor
[3] = Permeability from apical to basolateral side of human Caco2 cells after 120 mins; conditions: Caco-2

Question: What does the source list for Cn1c(N2CCN(CCCN3c4ccccc4COc4ccc(C(=O)O)cc43)CC2)cc(=O)n(C)c1=O?
Answer: ED70 [1]: 187 mg/kg; Ratio IC50 [2]: > 240; Papp A→B at 2 h [3]: 7.6 ×10⁻⁶ cm/s
